Data source: PubChem BioAssay AID1159545 (Gurdon Institute, 2015)
In all, the deposit lists 42 reagents; below is a random part of them. 21 of all reagents (50%) count as active. The record does not give: the time to read-out.

- Assay: 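Which human E2 ubiquitin-conjugating enzymes alter RPA2 phosphorylation under camptothecin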
- System: human U2OS osteosarcoma cells
- Reagent: siRNA against human genes, about 60 nM siRNA
- Challenge: camptothecin 1 uM for 1 hour
- Measured: 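After a 1 h pulse of 1 µM camptothecin, the phospho-RPA2/total RPA2 band ratio is scaled to luciferase siRNA control, minus the same ratio without damage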
- Direction: pRPA2/RPA2 after camptothecin, % control: higher = more RPA2 phosphorylation after camptothecin
- Rule for the call: 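Active if the value lies under 60% or over 140% of the luciferase control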

UBE2J2 → pRPA2/RPA2 after camptothecin, % control = 65.4; outcome = inactive
RBBP8 → pRPA2/RPA2 after camptothecin, % control = 2.5; outcome = active
UBE2C → pRPA2/RPA2 after camptothecin, % control = 107; outcome = inactive
UBE2L3 → pRPA2/RPA2 after camptothecin, % control = 32.9; outcome = active
UEVLD → pRPA2/RPA2 after camptothecin, % control = 88.5; outcome = inactive
UBE2J1 → pRPA2/RPA2 after camptothecin, % control = 33.7; outcome = active
UBE2O → pRPA2/RPA2 after camptothecin, % control = 6.42; outcome = active
UBE2NL → pRPA2/RPA2 after camptothecin, % control = 60.2; outcome = inactive
CDC34 → pRPA2/RPA2 after camptothecin, % control = 6; outcome = active
